Test results published in paper PMC13507242.
These are yes or no findings as the source states them, for the method shown. Binding seen in cells or lysates may run through a third protein. Some binding calls cover weakened binding; strength is not graded here. Values belong to the substance of their own block, whether it stands above or below them.

Sequences of proteins named here, by UniProt entry; tags and fusion partners are left off. A change or cut given only in a name is not applied to a line headed by its entry. Residues count along the entry.
UniProt Q14114, residues 42-826: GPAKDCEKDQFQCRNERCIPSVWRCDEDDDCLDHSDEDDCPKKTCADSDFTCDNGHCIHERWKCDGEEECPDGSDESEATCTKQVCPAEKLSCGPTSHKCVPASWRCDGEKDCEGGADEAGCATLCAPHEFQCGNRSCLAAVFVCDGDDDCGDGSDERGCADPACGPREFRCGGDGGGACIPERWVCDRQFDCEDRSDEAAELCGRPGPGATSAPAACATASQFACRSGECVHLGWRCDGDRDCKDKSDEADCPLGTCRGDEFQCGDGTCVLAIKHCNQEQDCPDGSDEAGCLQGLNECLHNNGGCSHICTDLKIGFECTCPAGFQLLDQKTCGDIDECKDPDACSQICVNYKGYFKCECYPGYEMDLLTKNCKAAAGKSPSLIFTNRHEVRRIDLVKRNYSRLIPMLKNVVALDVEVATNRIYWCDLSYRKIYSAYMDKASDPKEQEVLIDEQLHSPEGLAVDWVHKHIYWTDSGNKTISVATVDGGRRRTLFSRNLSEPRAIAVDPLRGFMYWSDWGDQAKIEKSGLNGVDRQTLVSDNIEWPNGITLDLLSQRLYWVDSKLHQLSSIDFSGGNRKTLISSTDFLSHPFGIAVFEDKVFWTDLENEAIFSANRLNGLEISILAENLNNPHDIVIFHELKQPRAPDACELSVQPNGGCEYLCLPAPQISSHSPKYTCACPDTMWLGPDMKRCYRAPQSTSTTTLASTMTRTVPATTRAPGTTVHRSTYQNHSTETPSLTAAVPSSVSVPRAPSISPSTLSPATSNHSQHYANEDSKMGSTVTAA
UniProt P20138, residues 18-364: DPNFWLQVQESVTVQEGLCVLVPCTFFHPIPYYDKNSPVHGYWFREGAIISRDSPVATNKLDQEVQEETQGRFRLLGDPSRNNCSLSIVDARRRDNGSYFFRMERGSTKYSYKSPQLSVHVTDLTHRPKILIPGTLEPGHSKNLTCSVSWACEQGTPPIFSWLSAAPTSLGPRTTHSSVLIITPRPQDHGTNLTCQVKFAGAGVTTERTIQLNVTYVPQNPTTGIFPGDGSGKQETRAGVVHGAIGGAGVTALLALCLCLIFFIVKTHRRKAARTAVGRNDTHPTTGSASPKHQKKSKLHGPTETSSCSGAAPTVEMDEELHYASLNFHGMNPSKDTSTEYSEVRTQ
UniProt P02649, residues 19-317: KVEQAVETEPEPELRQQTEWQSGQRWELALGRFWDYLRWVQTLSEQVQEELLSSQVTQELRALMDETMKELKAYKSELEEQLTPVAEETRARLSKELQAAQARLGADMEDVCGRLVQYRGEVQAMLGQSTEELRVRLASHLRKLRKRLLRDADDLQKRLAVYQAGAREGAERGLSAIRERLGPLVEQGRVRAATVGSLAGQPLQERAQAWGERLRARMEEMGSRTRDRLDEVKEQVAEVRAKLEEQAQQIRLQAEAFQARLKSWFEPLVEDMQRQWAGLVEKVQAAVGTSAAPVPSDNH
UniProt P29350: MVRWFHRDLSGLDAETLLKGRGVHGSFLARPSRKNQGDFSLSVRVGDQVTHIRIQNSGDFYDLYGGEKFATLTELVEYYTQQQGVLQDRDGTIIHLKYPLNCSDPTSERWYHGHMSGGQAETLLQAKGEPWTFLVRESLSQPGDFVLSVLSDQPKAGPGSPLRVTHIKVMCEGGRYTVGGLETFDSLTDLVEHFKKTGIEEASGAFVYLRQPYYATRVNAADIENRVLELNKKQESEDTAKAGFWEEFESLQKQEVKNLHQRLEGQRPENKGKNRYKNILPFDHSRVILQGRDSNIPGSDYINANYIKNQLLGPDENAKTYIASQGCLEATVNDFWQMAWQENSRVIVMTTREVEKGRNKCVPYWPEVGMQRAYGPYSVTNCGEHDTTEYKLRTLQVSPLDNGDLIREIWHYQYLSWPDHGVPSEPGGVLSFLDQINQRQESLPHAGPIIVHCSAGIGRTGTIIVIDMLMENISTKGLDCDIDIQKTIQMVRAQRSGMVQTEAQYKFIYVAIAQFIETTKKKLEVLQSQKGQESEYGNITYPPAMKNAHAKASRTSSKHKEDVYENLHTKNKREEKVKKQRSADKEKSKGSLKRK
UniProt P10909: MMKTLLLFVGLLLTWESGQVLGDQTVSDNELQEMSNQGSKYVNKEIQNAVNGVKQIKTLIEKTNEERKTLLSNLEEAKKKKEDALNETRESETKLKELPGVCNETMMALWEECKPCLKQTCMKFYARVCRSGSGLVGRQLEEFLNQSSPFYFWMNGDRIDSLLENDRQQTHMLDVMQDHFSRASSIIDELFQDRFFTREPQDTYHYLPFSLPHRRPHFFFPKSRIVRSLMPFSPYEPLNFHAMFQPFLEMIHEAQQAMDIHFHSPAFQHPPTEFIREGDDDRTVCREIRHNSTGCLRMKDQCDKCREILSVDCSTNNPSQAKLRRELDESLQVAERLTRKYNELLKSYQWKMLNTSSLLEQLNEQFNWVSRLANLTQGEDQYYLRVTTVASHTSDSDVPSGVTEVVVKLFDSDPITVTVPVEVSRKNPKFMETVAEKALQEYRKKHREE

Columns and labels:
[1] = biological target: ApoER2 ectodomain fused to His-tag (UniProt Q14114); test: pull-down; 20 µg His-tagged protein on His-tag Dynabeads, incubated 4 h at 4 °C with culture supernatant with ApoE3 or ApoE4 (3 µg/ml); washes with 500 mM NaCl, 0.5% Triton X-100; blot for ApoE; called co-immunoprecipitation by the paper; only the target purified
[2] = biological target: endogenous CD33 of human THP-1 cells and human blood monocytes (human (endogenous in THP-1 and blood monocytes)) (UniProt P20138); test: proximity ligation; flowPLA of CD33 and SHP-1 in permeabilized, fixed human monocytes (rs3865444 CC), untreated or 60 nM CLU for 15 min at 37 °C; read by flow cytometry
[3] = biological target: endogenous CD33 of human cerebral cortex (human (endogenous in brain tissue)) (UniProt P20138); test: co-IP; anti-CD33 IP from lysates of AD (n = 3) and control (n = 3) cerebral cortex, blot for CLU
[4] = biological target: endogenous CD33 of human cerebral cortex (human (endogenous in brain tissue)) (UniProt P20138); test: proximity ligation; in situ PLA on post-mortem AD brain sections with anti-CD33 and anti-clusterin antibodies (<40 nm)

- binding [1]: binds
Substance: ApoE3 (ApoE ε3), naturally secreted, fully sialylated (from UniProt P02649 19-317) (ligand)

- binding [2]: binds
Substance: endogenous SHP-1 (SH2-containing protein tyrosine phosphatase 1) (from UniProt P29350 1-595) (enzyme)

- binding [3]: binds
- binding [4]: binds
Substance: endogenous clusterin (CLU) of human cerebral cortex (from UniProt P10909 23-227; P10909 228-449) (ligand)
